Experimental data published in the M2OR odorant receptor database.
Positions count from the first letter of the chain named. This is a selection; strong and weak results do not stand in their true shares. Calls are pooled over several reports, among them a noisy single-well screen. The list shows a part of the results. This is one part of the list.

Chains of the proteins cited; added tags and fusions are not shown. Chains listed by the source or under a name are the forms on record and can include a tag or linker.
OR1A1, as listed by the source: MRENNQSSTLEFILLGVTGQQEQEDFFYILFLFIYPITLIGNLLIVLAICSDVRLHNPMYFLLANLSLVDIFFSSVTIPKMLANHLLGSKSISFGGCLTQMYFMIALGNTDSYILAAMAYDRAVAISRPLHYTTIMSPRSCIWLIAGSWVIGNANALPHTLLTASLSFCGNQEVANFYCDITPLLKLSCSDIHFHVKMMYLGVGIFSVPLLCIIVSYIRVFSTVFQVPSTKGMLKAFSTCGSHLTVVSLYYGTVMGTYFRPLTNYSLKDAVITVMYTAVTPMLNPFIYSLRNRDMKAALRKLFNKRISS

Assays:
Details in all cases: stereoisomer not certain
OR13C3 (Homo sapiens) = target: T1, OR13C3 (Homo sapiens) (UniProt Q8NGS6)
T1 sequence (whole entry): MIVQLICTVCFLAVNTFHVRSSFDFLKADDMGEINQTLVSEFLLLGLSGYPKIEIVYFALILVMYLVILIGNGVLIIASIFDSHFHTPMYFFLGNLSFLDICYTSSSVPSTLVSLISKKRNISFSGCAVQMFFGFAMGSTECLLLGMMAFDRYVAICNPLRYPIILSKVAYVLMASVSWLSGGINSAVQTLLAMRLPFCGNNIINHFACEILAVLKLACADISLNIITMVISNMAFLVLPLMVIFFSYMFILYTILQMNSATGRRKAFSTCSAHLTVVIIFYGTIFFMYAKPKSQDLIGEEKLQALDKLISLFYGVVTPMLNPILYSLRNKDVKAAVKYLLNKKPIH
Outline: (§1)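 Transient luciferase assays in mammalian cell lines were common, though methods varied by source. The values come from published papers and their supplementary material, with extra details from the original authors when needed. Responsive refers to a measured signal the original authors judged statistically different from baseline, and non-responsive (inactive) to the remainder.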

OR13C4 (Homo sapiens) = target: T2, OR13C4 (Homo sapiens) (UniProt Q8NGS5)
T2 sequence (whole entry): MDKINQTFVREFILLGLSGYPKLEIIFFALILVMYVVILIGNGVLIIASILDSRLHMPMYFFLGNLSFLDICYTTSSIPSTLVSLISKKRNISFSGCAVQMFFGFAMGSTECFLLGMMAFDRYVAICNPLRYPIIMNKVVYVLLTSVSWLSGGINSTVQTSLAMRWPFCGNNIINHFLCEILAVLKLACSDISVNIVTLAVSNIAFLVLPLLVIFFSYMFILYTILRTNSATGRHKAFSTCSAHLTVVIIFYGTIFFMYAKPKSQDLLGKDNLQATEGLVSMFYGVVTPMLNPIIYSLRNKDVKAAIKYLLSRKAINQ
Outline: as §1

OR13C8 (Homo sapiens) = target: T3, OR13C8 (Homo sapiens) (UniProt Q8NGS7)
T3 sequence (whole entry): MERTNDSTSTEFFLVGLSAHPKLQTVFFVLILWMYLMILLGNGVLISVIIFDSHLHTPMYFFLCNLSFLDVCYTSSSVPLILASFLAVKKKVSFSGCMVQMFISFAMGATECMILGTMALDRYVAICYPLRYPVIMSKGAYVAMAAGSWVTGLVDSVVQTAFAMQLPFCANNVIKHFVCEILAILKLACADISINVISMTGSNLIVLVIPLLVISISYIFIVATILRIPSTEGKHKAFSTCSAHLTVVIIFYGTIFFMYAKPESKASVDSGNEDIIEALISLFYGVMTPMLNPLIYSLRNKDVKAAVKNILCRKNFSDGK
Outline: as §1

OR13H1 (Homo sapiens) = target: T4, OR13H1 (Homo sapiens) (UniProt Q8NG92)
T4 sequence (whole entry): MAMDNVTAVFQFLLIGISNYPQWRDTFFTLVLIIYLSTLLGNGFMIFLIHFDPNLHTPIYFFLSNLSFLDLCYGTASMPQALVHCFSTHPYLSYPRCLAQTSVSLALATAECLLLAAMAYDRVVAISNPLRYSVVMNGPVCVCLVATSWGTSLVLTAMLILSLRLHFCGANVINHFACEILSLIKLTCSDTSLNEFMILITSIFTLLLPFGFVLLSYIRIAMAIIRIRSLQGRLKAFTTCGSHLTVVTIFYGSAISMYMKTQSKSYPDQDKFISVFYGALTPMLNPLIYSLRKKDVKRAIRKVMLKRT
Outline: as §1

OR14J1 (Homo sapiens) = target: T5, OR14J1 (Homo sapiens) (UniProt Q9UGF5)
T5 sequence (whole entry): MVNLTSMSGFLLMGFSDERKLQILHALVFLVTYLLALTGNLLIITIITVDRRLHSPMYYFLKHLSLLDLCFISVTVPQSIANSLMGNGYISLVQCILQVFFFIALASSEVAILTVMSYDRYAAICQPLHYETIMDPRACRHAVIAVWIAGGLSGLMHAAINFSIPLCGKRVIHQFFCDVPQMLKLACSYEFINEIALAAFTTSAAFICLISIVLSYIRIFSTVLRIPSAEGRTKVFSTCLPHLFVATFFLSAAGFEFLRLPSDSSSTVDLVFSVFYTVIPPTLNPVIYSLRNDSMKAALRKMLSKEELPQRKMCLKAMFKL
Outline: as §1

OR1A1 (Homo sapiens) = target: T6, OR1A1 (Homo sapiens) (UniProt Q9P1Q5)
T6 sequence (whole entry): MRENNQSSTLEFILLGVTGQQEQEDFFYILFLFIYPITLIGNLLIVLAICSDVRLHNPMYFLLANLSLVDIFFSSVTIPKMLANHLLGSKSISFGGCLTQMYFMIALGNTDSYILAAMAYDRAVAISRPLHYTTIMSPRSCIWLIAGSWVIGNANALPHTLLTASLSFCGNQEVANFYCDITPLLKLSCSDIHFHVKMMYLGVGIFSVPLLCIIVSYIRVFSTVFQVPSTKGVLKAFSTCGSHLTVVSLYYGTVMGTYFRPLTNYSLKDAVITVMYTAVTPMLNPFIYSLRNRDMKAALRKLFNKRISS
Outline: as §1

OR1A1 [1] = test system: T7, OR1A1
T7 sequence (whole entry): T6 sequence (whole entry) with R128H
Outline: as §1

OR1A1 [2] = test system: T8, OR1A1; remark: listed apart in the source
T8 sequence (whole entry): T6 sequence (whole entry) with V233M
Outline: as §1

OR1A1 [3] = test system: T9, OR1A1; remark: listed apart in the source
T9 sequence (whole entry): T6 sequence (whole entry) with P285S
Outline: as §1

OR1A2 (Homo sapiens) = target: T10, OR1A2 (Homo sapiens) (UniProt Q9Y585)
T10 sequence (whole entry): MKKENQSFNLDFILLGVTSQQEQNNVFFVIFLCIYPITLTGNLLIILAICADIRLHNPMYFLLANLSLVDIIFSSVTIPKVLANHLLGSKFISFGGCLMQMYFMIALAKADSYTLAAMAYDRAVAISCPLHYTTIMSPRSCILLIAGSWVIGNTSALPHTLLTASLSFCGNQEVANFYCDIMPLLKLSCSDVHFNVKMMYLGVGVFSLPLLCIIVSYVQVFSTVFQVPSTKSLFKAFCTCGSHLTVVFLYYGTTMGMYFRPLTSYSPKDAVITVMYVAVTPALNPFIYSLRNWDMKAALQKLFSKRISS
Outline: as §1
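Note: active if original authors judged signal statistically different from baseline.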

Structure (SMILES): CCC(C)=O
- odorant receptor agonist call (OR13C3 (Homo sapiens)): inactive
- odorant receptor agonist call (OR13C4 (Homo sapiens)): inactive
- odorant receptor agonist call (OR13C8 (Homo sapiens)): inactive
- odorant receptor agonist call (OR13H1 (Homo sapiens)): inactive
- odorant receptor agonist call (OR14J1 (Homo sapiens)): inactive
- odorant receptor agonist call (OR1A1 (Homo sapiens)): inactive
- odorant receptor agonist call (OR1A1 [1]): inactive
- odorant receptor agonist call (OR1A1 [2]): inactive
- odorant receptor agonist call (OR1A1 [3]): inactive
- odorant receptor agonist call (OR1A2 (Homo sapiens)): inactive

Structure (SMILES): CS
- odorant receptor agonist call (OR13C3 (Homo sapiens)): inactive
- odorant receptor agonist call (OR13C4 (Homo sapiens)): inactive
- odorant receptor agonist call (OR13C8 (Homo sapiens)): inactive
- odorant receptor agonist call (OR13H1 (Homo sapiens)): inactive
- odorant receptor agonist call (OR14J1 (Homo sapiens)): inactive
- odorant receptor agonist call (OR1A1 (Homo sapiens)): inactive
- odorant receptor agonist call (OR1A1 [1]): inactive
- odorant receptor agonist call (OR1A1 [2]): active
- odorant receptor agonist call (OR1A1 [3]): inactive
- odorant receptor agonist call (OR1A2 (Homo sapiens)): inactive

Structure (SMILES): CCCCOC(C)=O
- odorant receptor agonist call (OR13C3 (Homo sapiens)): inactive
- odorant receptor agonist call (OR13C4 (Homo sapiens)): inactive
- odorant receptor agonist call (OR13C8 (Homo sapiens)): inactive
- odorant receptor agonist call (OR13H1 (Homo sapiens)): inactive
- odorant receptor agonist call (OR14J1 (Homo sapiens)): inactive
- odorant receptor agonist call (OR1A1 (Homo sapiens)): inactive
- odorant receptor agonist call (OR1A1 [1]): inactive
- odorant receptor agonist call (OR1A1 [2]): active
- odorant receptor agonist call (OR1A1 [3]): inactive
- odorant receptor agonist call (OR1A2 (Homo sapiens)): inactive

Structure (SMILES): CCOc1cc(C=O)ccc1O
- odorant receptor agonist call (OR1A1 (Homo sapiens)): inactive
